Our source for the cell number change and AC50 values is PubChem BioAssay AID2685 (National Center for Advancing Translational Sciences (NCATS), 2010).

The test is described as follows: qHTS Assay for Lipid Storage Modulators in Drosophila S3 Cells.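 On cell number change: cells counted by Cell Tracker Red CMTPX staining in the red channel.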 The settings on record: BODIPY lipid droplet fluorescence, 18-24 h; for cell number change: measured here: cell count max response, cells fed with added oleic acid. In a few lines: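 Laser-scanning cytometry quantifies lipid droplet accumulation (500–530 nm total intensity; droplet/cell object ratio) in oleic acid-fed (400 uM added) Drosophila S3 cells treated with a concentration series. 20 uM Triacsin C defined 100% inhibition.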

Where [1] appears, read: measured here: cell number channel AC50, cells fed with added oleic acid.
The mark [2] stands for this setting: measured here: lipid fluorescence (Fed channel) AC50, cells fed with added oleic acid.

Structures are written as SMILES. The list shows a part of the results. Further columns of the screen follow, without active or inactive calls. Compounds called inactive in the main read-out are mostly missing here. Words in brackets tell the shape of the fitted curve; partial curves, single points and poor fits give uncertain potencies.

With `Cc1cc(/C=C2\NC(=O)NC2=O)c(C)n1-c1cccnc1`, the cell number change turned out to be 28.1%. Also, under setting [1], the AC50 (in general, the concentration at which the activity in the assay is half-maximal) is 0.517 µM [rising, full curve, poor fit]. The AC50 under setting [2] was 5.8 µM [rising, single point].
Turning to `CSc1nsc(SCC(=O)Nc2nc3ccccc3s2)n1`, the cell number change is -43%. For the same compound, under setting [1], the AC50 is 11.6 µM [falling, partial curve, poor fit].
On to `CC(=O)c1ccc(N2CCN(C(=S)Nc3cccc(F)c3)CC2)cc1`, for which the cell number change was -10.7%.
`CC(OC(=O)c1cccnc1Cl)C(=O)Nc1ccc2c(c1)OCCO2` (configuration not stated): the AC50 under setting [2] was 0.0146 µM [rising, full curve, poor fit].
Consider `CCn1c(C)c(C)c2cc(C(=O)N3CCc4ccccc4C3)ccc21`, for which the cell number change was determined as 32.7%. In addition, the AC50 under setting [1] was 5.8 µM [rising, partial curve].
For the compound `Cc1ccc(CNC(=O)c2c(-c3ccccc3Cl)noc2C)cc1`, the cell number change is 7.32%. Also, the AC50 under setting [2] is 29.1 µM [falling, single point].
With `CCOc1ccc(N(CC(=O)NC(C)CC)S(C)(=O)=O)cc1` (configuration not stated), the cell number change was -56.1%. Moreover, the AC50 under setting [1] is 20.6 µM [falling, single point]. Besides, under setting [2], the half-maximal activity concentration (AC50) was 29.1 µM [falling, single point].
Consider `CCOc1ccc(C)cc1S(=O)(=O)n1ccnc1`, for which the half-maximal activity concentration (AC50) runs as follows: under setting [1], 0.517 µM [rising, full curve]; under setting [2], 1.84 µM [rising, partial curve].
Take `O=C(NCc1ccc(F)cc1)C1CCCN(C(=O)NCc2ccccc2)C1` (configuration not stated): the cell number change is 23.9%. Also, the AC50 under setting [2] is 29.1 µM [rising, single point].
For `CCn1c(Cc2ccc(OC)cc2)nnc1SCC(=O)Nc1cccc(C(=O)OC)c1`, the cell number change was -7.98%. The AC50 under setting [1] is 1.64 µM [falling, partial curve]. Under setting [2], the AC50 is 1.84 µM [falling, partial curve].
On to `CCC(C)NC(=O)CCS(=O)(=O)c1ccc2c(c1)n(C)c(=O)c(=O)n2C` (configuration not stated), for which the cell number change is -34.5%. Further, the AC50 under setting [1] was 20.6 µM [falling, single point]. For the same compound, the AC50 under setting [2] is 20.6 µM [falling, single point].
On to `O=C(Nc1cccc(Cl)c1)c1nc[nH]c1C(=O)N1CCN(c2ccccc2)CC1`, for which the cell number change was -38.1%. The AC50 under setting [1] is 25.9 µM [falling, single point].
Regarding `O=C(/C(=C(\[O-])c1ccccc1)[n+]1ccc2ccccc2c1)c1ccc(Cl)cc1`, the cell number change turned out to be 23.2%. Besides, the AC50 under setting [1] was 0.00517 µM [rising, full curve, poor fit]. The AC50 under setting [2] was 2.59 µM [rising, full curve].
Regarding `C/C(=N\NC(=O)c1ccc(Cl)cc1)c1cccnc1`, the cell number change came out at 6.49%. Also, the AC50 under setting [2] is 20.6 µM [rising, single point].
Take `CN1C(=O)N2CN(C3CCCCC3)CN3C(=O)N(C)C1C23` (configuration not stated): the cell number change was -16.9%. Also, under setting [2], the AC50 is 5.8 µM [falling, full curve].
`C=CCOc1cccc(C(=O)Nc2ncn[nH]2)c1`: the cell number change is -10.3%.
`CC1CCN(C2=C(NS(=O)(=O)c3ccccc3)C(=O)c3ccccc3C2=O)CC1`: the cell number change was -59%. In addition, under setting [1], the AC50 was 3.66 µM [falling, full curve]. Further, the AC50 under setting [2] was 1.84 µM [falling, full curve].
For the compound `Cc1ccc2cc(CN(Cc3ccco3)S(=O)(=O)c3c(C)ccc4nsnc34)c(=O)[nH]c2c1`, the cell number change worked out at 18.4%. Besides, the AC50 under setting [1] was 0.366 µM [rising, full curve, poor fit].
Turning to `Nc1nonc1-n1nnc(C(=O)c2ccccc2)c1-c1ccccc1`, the cell number change came out at 90.7%. The AC50 under setting [2] is 20.6 µM [rising, single point].
Take `O=S(=O)(c1ccc(OCc2nc3ccccc3s2)c(Cl)c1)N1CCOCC1`: the AC50 under setting [2] was 6.51 µM [rising, single point].
As to `CCc1ccc(/C=N\NC(=O)c2ccc(Br)o2)s1`, the cell number change worked out at 9.3%. Under setting [2], the concentration at half-maximal activity (AC50) is 0.651 µM [rising, partial curve].
As for `Cc1ccc(C(=O)C2=C(O)C(=O)N(Cc3cccnc3)C2c2cccc([N+](=O)[O-])c2)o1` (configuration not stated), the cell number change is 25.6%. In addition, the AC50 under setting [1] is 1.46 µM [rising, full curve, poor fit]. Under setting [2], the half-maximal activity concentration (AC50) is 23.1 µM [rising, single point].
As for `Clc1ccc(-n2nnnc2SCc2c(-c3ccccc3)nc3sccn23)cc1`, the cell number change was -61.5%. The AC50 under setting [1] is 3.66 µM [falling, partial curve]. For the same compound, the AC50 under setting [2] is 32.6 µM [falling, single point].
On to `COC(=O)c1ccc(CC(=O)c2c(C)cc(O)cc2O)o1`, for which the cell number change stood at 4.19%. The half-maximal activity concentration (AC50) under setting [2] is 0.82 µM [rising, full curve].
For the compound `CN(CCCC1CCCC1)C(=O)CC1C(=O)NCCN1Cc1ccc(F)cc1` (configuration not stated), the cell number change came to 16.4%. In addition, the AC50 under setting [2] was 0.0651 µM [falling, full curve, poor fit].
As for `O=C(CN1CCN(c2ccc(F)cc2)CC1)Nc1ccc(S(=O)(=O)N2CCOCC2)cc1`, under setting [2], the AC50 was 6.51 µM [falling, single point].
`Cc1ccc(NC(=O)CN2C(=O)S/C(=C\c3ccc(-c4cccc(C(=O)O)c4C)o3)C2=O)cc1`: the cell number change worked out at 3.13%.
For the compound `Cc1ccccc1CSCCNS(C)(=O)=O`, the cell number change is -72.9%. The AC50 under setting [1] was 18.4 µM [falling, single point]. The AC50 under setting [2] was 0.092 µM [rising, full curve, poor fit].
On to `Cc1cccc2sc(NC(=O)C3c4ccccc4Oc4ccccc43)nc12`, for which the cell number change is -15.2%. For the same compound, the AC50 under setting [2] is 3.66 µM [falling, partial curve].
As for `COc1ccccc1NC(=O)CSc1sc2c(O)cc(=O)[nH]c2c1C#N`, the cell number change was determined as 8.7%.
Regarding `O=C(N/N=C/c1sc(=O)n(-c2ccccc2)c1Cl)c1ccccc1`, the cell number change came out at 37.6%. Under setting [1], the AC50 is 32.6 µM [rising, single point].
Turning to `O=S(CCc1ccncc1)Cc1ccccc1` (configuration not stated), the cell number change stood at 14.9%. In addition, the half-maximal activity concentration (AC50) under setting [2] was 0.651 µM [falling, full curve].
As to `CN(C)S(=O)(=O)c1ccc2nc(NC(=O)c3cccs3)sc2c1`, the cell number change was 43.5%. Also, the AC50 under setting [1] is 11.6 µM [rising, partial curve]. Besides, the AC50 under setting [2] was 0.92 µM [rising, full curve].
Consider `COc1cc(/C=C(\C#N)C(=O)Nc2ccccc2F)ccc1OCCN1CCOCC1`, for which the cell number change was -19.1%.
Regarding `CCOC(=O)c1c(S(=O)(=O)NCC(=O)NCc2ccccc2)c(C)n(C)c1C`, the AC50 under setting [1] is 0.00461 µM [rising, full curve, poor fit].
As for `O=C1Nc2ccc(Cl)cc2[C@@](C#CC2CC2)(C(F)(F)F)O1`, the cell number change was -73%. Further, under setting [1], the concentration at half-maximal activity (AC50) was 13 µM [falling, partial curve]. In addition, the AC50 under setting [2] was 14.6 µM [falling, partial curve].
In the case of `O=C(Nc1cccnc1)C12CC3CC(CC(C3)C1)C2`, the cell number change was -10.6%. Moreover, under setting [2], the AC50 is 0.164 µM [falling, full curve, poor fit].
For the compound `CN(C)c1ccc(/C=C(/NC(=O)c2ccccc2)C(=O)N2CCCC2)cc1`, the cell number change was -26.2%. For the same compound, the concentration at half-maximal activity (AC50) under setting [1] was 0.731 µM [falling, full curve, poor fit]. For the same compound, under setting [2], the AC50 is 32.6 µM [rising, single point].
On to `C=CCSc1nc2c(c(=O)[nH]c(=O)n2C)n1C/C=C(/C)Cl`, for which the cell number change is -19.4%. Moreover, the AC50 under setting [2] is 32.6 µM [falling, single point].
`O=C(O)c1ccc(NC2=C/C(=N/S(=O)(=O)c3ccccc3)c3ccccc3C2=O)cc1`: the cell number change was -63%. The half-maximal activity concentration (AC50) under setting [1] was 0.164 µM [falling, full curve, poor fit]. The AC50 under setting [2] was 23.1 µM [falling, partial curve, poor fit].
Consider `O=C(N/N=C\c1cccc(Cl)c1)c1ccc(Cn2cc(Br)c([N+](=O)[O-])n2)o1`, for which the cell number change was -15.3%. Moreover, the concentration at half-maximal activity (AC50) under setting [2] is 25.9 µM [falling, partial curve, poor fit].
With `Cc1ccc(CC(=O)NC2CCCc3ccccc32)cc1C` (configuration not stated), the cell number change worked out at 6.76%. The AC50 under setting [2] is 0.58 µM [rising, single point].
Consider `CCC(CC)N1CCN(S(=O)(=O)c2ccc(OC)cc2)CC1`, for which the cell number change came out at 13.2%.
As for `C/C(=N\NC(=O)CSCc1ccc([N+](=O)[O-])cc1)c1ccccc1O`, the cell number change came to 20.8%. For the same compound, the AC50 under setting [2] was 14.6 µM [rising, partial curve, poor fit].
With `COc1cc(SC)ccc1C(=O)Nc1ccc2c(c1)OCO2`, the cell number change turned out to be 164%. The AC50 under setting [1] was 20.6 µM [rising, partial curve]. For the same compound, the AC50 under setting [2] is 0.731 µM [rising, full curve].
For the compound `COc1ccc(CC(=O)NCc2ccccc2Cl)cc1S(=O)(=O)N1CCOCC1`, the cell number change was -3.57%.
With `CNC(=O)CN(c1ccc(F)cc1)S(=O)(=O)c1cc(C)ccc1OC`, the AC50 under setting [1] was 0.58 µM [falling, single point] and the AC50 under setting [2] is 0.58 µM [falling, single point].
As for `COc1ccc(Br)cc1CNc1ccccc1`, the cell number change worked out at 3.44%. Besides, the concentration at half-maximal activity (AC50) under setting [2] is 16.4 µM [rising, partial curve].
Take `CCOC(=O)c1c(C)[nH]c(C(=O)OCc2ccc([N+](=O)[O-])cc2)c1C`: the cell number change was -18.2%. The AC50 under setting [2] is 16.4 µM [falling, single point].
Turning to `O=C(NCCc1ccccc1)C(=O)NCC1CCCO1` (configuration not stated), the cell number change is -2.33%. In addition, the half-maximal activity concentration (AC50) under setting [2] was 2.31 µM [falling, single point].
On to `Cc1cc(NC(=O)CN2CCC(O)(c3cccc(F)c3)CC2)no1`, for which the cell number change was -48.7%. The AC50 under setting [1] was 32.6 µM [falling, single point].
For `O=S(=O)(c1ccc(Cl)cc1)N1CCN(C2CCCCCC2)CC1`, the cell number change stood at 18%. Moreover, the AC50 under setting [2] was 0.58 µM [rising, partial curve].
On to `O=C(NCCO)C(=O)NCC1OCCCN1S(=O)(=O)c1cccs1` (configuration not stated), for which the cell number change turned out to be 16.7%. The AC50 under setting [1] was 6.51 µM [rising, single point].
On to `CCC(=O)c1ccc(OCC(=O)O)cc1`, for which the cell number change is -7.72%. The AC50 under setting [1] was 2.31 µM [rising, partial curve]. Also, the AC50 under setting [2] was 3.66 µM [falling, single point].
With `CC(C)(C)c1cc(NC(=O)c2ccco2)n(-c2ccccc2)n1`, the cell number change was 57.9%. The AC50 under setting [1] is 29.1 µM [rising, single point].
In the case of `CCCCc1ccc(NC=C2C(=O)OC3(CCCCC3)OC2=O)cc1`, the concentration at half-maximal activity (AC50) under setting [2] is 16.4 µM [rising, partial curve].
Regarding `O=C(NCCS(=O)(=O)NCc1ccc(F)cc1)c1ccccc1`, the cell number change turned out to be 1.94%. The AC50 under setting [1] is 6.51 µM [falling, single point].
